# End groups of sequences in plain letters are not given here.
# Assay: general procedure: Fmoc solid-phase peptide synthesis
# Details: whole synthesis, TFA salt, several disulfide bridges, sequence written open
row,Sequence,final purity (method not given) [%]
1,GSGVPINVRCRGSRDCLDPCRRAGMRFGRCINSRCHCTP,96.1
2,RCRGSRDCLDPCRRAGMRFGRCINSRCHCTP,96.8

# Reference: patent US20210171589A1 (BLAZE BIOSCIENCE, INC., priority 2018, published 2021)
